# According to the supplement of paper PMC7024190:
# Structures can show the parent of a compound that is named as a salt. The list shows a part of the results. Single values are uncertain here, since repeats match poorly.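 The cells were human embryonic kidney cells carrying a Renilla luciferase gene, driven by the HSV-TK promoter, on a plasmid put in briefly by transfection. This is the first-round screen of about ten thousand compounds, looking for ones that raise reporter output.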
# Tested on: HEK 293FT
# Assay: log relative Renilla luciferase luminescence (reporter expression vs reference, reference not stated) (log (base not stated)); higher = higher recombinant reporter expression
# Conditions: 10 µM; time after transfection 48 h
row,SMILES,log
1,CN(C)c1ccc(C(=C2C=CC(=[N+](C)C)C=C2)c2ccc(N(C)C)cc2)cc1 [gentian violet],-0.675
2,COc1ccc(CC2c3cc(OC)c(OC)cc3CC[N+]2(C)CCC(=O)OCCCCCOC(=O)CC[N+]2(C)CCc3cc(OC)c(OC)cc3C2Cc2ccc(OC)c(OC)c2)cc1OC (stereo not given) [atracurium besylate],0.11
3,CC(=O)[C@H]1CC[C@H]2[C@@H]3CC=C4C[C@@H](O)CC[C@]4(C)[C@H]3CC[C@]12C [pregnenolone],0.13
4,Cc1nc(Nc2ncc(C(=O)Nc3c(C)cccc3Cl)s2)cc(N2CCN(CCO)CC2)n1 [dasatinib],-0.343
5,CCN(CCO)CCCC(C)Nc1ccnc2cc(Cl)ccc12 (stereo not given) [hydroxychloroquine sulfate],0.0999
6,CON [methoxyamine hydrochloride],-0.134
7,CC1(C)[C@@H](O)CC[C@]2(C)[C@H]3C(=O)C=C4[C@H]5C[C@@](C)(C(=O)O)CC[C@]5(C)CC[C@@]4(C)[C@]3(C)CC[C@@H]12 [18alpha-glycyrrhetinic acid],0.0732
8,CO/N=C1\C[C@]2(C[C@@H]3C[C@@H](C/C=C(\C)C[C@@H](C)/C=C/C=C4\CO[C@@H]5[C@H](O)C(C)=C[C@@H](C(=O)O3)[C@]45O)O2)O[C@H](/C(C)=C/C(C)C)[C@H]1C [moxidectin],-0.097
9,CCCCN1CCCCC1C(=O)Nc1c(C)cccc1C (stereo not given) [bupivacaine hydrochloride],0.172
10,CCOC(=O)NNc1nncc2ccccc12 [todralazine hydrochloride],0.0613
11,CC(=O)c1c(O)cc(O)cc1O [phloracetophenone],0.234
12,CC(=O)O[C@@H]1CC2C(C)(CC[C@H](O)C2(C)C)C2CC[C@]3(C)C(=CC(=O)O[C@H]3c3ccoc3)C21C (stereo partly drawn) [3beta-hydroxydeoxodihydrodeoxygedunin],0.0943
13,O=c1c(-c2cc(O)c(O)c(O)c2)coc2cc(O)c(O)c(O)c12 [irigenol],0.0913
14,CC12CCCC(O)(C1)C1CC(C)(C)C1CC2 (stereo not drawn) [beta-caryophyllene alcohol],0.102
15,CC(C)(C)c1ccc(C(O)CCCN2CCC(C(O)(c3ccccc3)c3ccccc3)CC2)cc1 (stereo not given) [terfenadine],0.0676
16,CC(COc1ccccc1)NC(C)C(O)c1ccc(O)cc1 (stereo not given) [isoxsuprine hydrochloride],0.0442
17,Cc1cc(=O)oc2c(O)c(O)ccc12 [4-methyldaphnetin],-0.252
18,C#C[C@]1(O)CC[C@H]2[C@@H]3CCC4=C(CCC(=O)C4)[C@H]3CC[C@@]21C [norethynodrel],-0.246
19,COc1cc(OC)c(-c2c(OC)cc(OC)cc2OC)c(OC)c1 [difucol hexamethyl ether],0.201
20,CC(C)(C)NCC(O)c1cc(O)cc(O)c1 (stereo not given) [terbutaline hemisulfate],-0.029
21,COc1ccc2c(c1)O[C@@H]1COc3cc(OC)c(OC)cc3[C@@H]1C2=O [mundoserone],-0.798
22,CCOC(=O)[N-]c1c[n+](N2CCOCC2)no1 [molsidomine],-0.0943
23,CC[N+](CC)(CC)CCOc1cccc(OCC[N+](CC)(CC)CC)c1OCC[N+](CC)(CC)CC [gallamine triethiodide],-0.0304
24,CN[C@@H]1[C@H](O[C@H]2[C@H](O[C@H]3[C@H](O)[C@@H](O)[C@H](NC(=N)N)[C@@H](O)[C@@H]3NC(=N)N)O[C@@H](C)[C@]2(O)CO)O[C@@H](CO)[C@H](O)[C@H]1O [dihydrostreptomycin sulfate],-0.076
25,NCc1ccc(S(N)(=O)=O)cc1 [mafenide hydrochloride],-0.269

row,SMILES,log
1,COc1cc2oc3cc(OC)c(OC)c(CC=C(C)C)c3c(=O)c2c(OC)c1CC=C(C)C [mangostin trimethyl ether],0.345
2,CCc1oc2ccccc2c1C(=O)c1cc(Br)c(O)c(Br)c1 [benzbromarone],-0.101
3,CC/C(=C(\c1ccccc1)c1ccc(OCCN(C)C)cc1)c1ccccc1 [tamoxifen citrate],0.102
4,CC(=O)Nc1ccc(C(=O)O)cc1 [acedoben],-0.389
5,O=C(O)c1cccnc1C(=O)O [quinolinic acid],-0.00978
6,O=C(O)c1ccccc1 [benzoic acid],0.0182
7,CCOc1ccc(NC(C)=O)cc1 [phenacetin],-0.337
8,CN1CCC[C@@H]1CCO[C@](C)(c1ccccc1)c1ccc(Cl)cc1 [clemastine fumarate],-0.136
9,COc1cc2ncnc(Nc3ccc(F)c(Cl)c3)c2cc1OCCCN1CCOCC1 [gefitinib],-0.0491
10,COc1ccc(C(=O)c2ccccc2O)c(O)c1 [dioxybenzone],-0.0638
11,CC(C)(C)NC[C@H](O)COc1ccccc1C1CCCC1 [penbutolol sulfate],-0.0658
12,Nc1nc2[nH]cc(CCc3ccc(C(=O)N[C@@H](CCC(=O)O)C(=O)O)cc3)c2c(=O)[nH]1 [pemetrexed],0.00259
13,COCCc1ccc(OCC(O)CNC(C)C)cc1 (stereo not given) [metoprolol tartrate],-0.0748
14,OCc1ccccn1 [piconol],0.0746
15,COc1ccc(CN2CCN(C(c3ccc(F)cc3)c3ccc(F)cc3)CC2)c(OC)c1OC [lomerizine hydrochloride],0.0766
16,"COc1cc(OC)c2c(=O)c(-c3ccccc3)c(C)oc2c1OC [2-methyl-5,7,8-trimethoxyisoflavone]",-0.0277
17,CC(C)Cc1ccc(C(C)C(=O)O)cc1 (stereo not given) [ibuprofen],0.129
18,"COC1=CC(=O)C=C(OC)C1=O [2,6-dimethoxyquinone]",-1.57
19,Cc1cnc(C(=O)O)c[n+]1[O-] [acipimox],0.0907
20,CC(=O)Nc1cccc(O)c1 [metacetamol],-0.141
21,O=c1c(O)c(-c2ccc(O)c(O)c2)oc2cc(O)cc(O)c12 [quercetin],0.0364
22,O=C(O)C1(C(=O)O)CCC1.[NH2-].[NH2-].[Pt+2] [carboplatin],0.0455
23,CC1=C(C/C=C(\C)CCC[C@H](C)CCC[C@H](C)CCCC(C)C)C(=O)c2ccccc2C1=O [phytonadione],-0.073
24,Cc1ncc(COP(=O)([O-])[O-])c(CN(CCN(CC(=O)O)Cc2c(COP(=O)([O-])O)cnc(C)c2O)CC(=O)O)c1O.[Mn].[Na+].[Na+].[Na+] [mangafodipir trisodium],0.0773
25,CN1CCOC(c2ccccc2)c2ccccc2C1 (stereo not given) [nefopam],-0.0467

row,SMILES,log
1,N=C(N)NCCCCN [agmatine sulfate],0.0271
2,CN1CCC(=C2c3ccccc3CCc3sccc32)CC1 [pizotyline malate],0.0252
3,CCN(CC)CCOc1ccc(C(=C(Cl)c2ccccc2)c2ccccc2)cc1 [clomiphene citrate],-0.0317
4,CC1(C)CC[C@]2(C(=O)O)CC[C@]3(C)C(=CCC4[C@@]5(C)CC[C@@H](O)C(C)(C)C5CC[C@]43C)C2C1 (stereo not given in full) [oleanoic acid],0.18
5,CCCCNc1ccc(C(=O)OCCN(C)C)cc1 [tetracaine hydrochloride],-0.00278
6,CCCCCOC(=O)Nc1nc(=O)n([C@@H]2O[C@H](C)[C@@H](O)[C@H]2O)cc1F [capecitabine],-0.0557
7,CCC1NC(=O)c2cc(S(N)(=O)=O)c(Cl)cc2N1 (stereo not given) [quinethazone],0.0799
8,CC(O)(P(=O)(O)O)P(=O)(O)O [etidronate disodium],0.0813
9,Cc1cnc(C(=O)NCCc2ccc(S(=O)(=O)NC(=O)NC3CCCCC3)cc2)cn1 [glipizide],0.148
10,O=C(O)COCCN1CCN([C@H](c2ccccc2)c2ccc(Cl)cc2)CC1 [levocetirizine dihydrochloride],-0.165
11,CCc1ccc2c(O)c3c(cc2c1C(=O)OC)C(=O)c1c(O)ccc(O)c1C3=O [bisanhydrorutilantinone],0.0715
12,O=S(=O)(O)c1cc(I)c(O)c2ncccc12 [chiniofon],-0.129
13,CC(=O)O[C@H]1C[C@@H](OC(C)=O)C(C)(C)[C@@H]2C[C@@H](OC(C)=O)[C@@]3(C)C4=CC(=O)O[C@@H](c5ccoc5)[C@]4(C)CC[C@@H]3[C@@]12C [deoxykhivorin],0.168
14,O=C1[C@H](CC[C@H](O)c2ccc(F)cc2)[C@@H](c2ccc(O)cc2)N1c1ccc(F)cc1 [ezetimibe],-0.00699
15,COC(=O)C1=C(C)NC(C)=C(C(=O)OCCN(C)Cc2ccccc2)C1c1cccc([N+](=O)[O-])c1 (stereo not given) [nicardipine hydrochloride],-0.0129
16,CC(C)=CCc1c2c(c3occ(-c4ccc(O)cc4)c(=O)c3c1O)C=CC(C)(C)O2 [osajin],-0.282
17,CN1CCN(c2c(F)cc3c(=O)c(C(=O)O)cn4c3c2SCC4)CC1 [rufloxacin hydrochloride],0.0757
18,COC(=O)C1=C(C)NC(C)=C(C(=O)OCC(C)C)C1c1ccccc1[N+](=O)[O-] (stereo not given) [nisoldipine],0.153
19,O=C1CCc2ccc(OCCCCN3CCN(c4cccc(Cl)c4Cl)CC3)cc2N1 [aripiprazole],-0.0569
20,CN(C)CCOC(c1ccc(Cl)cc1)c1ccccn1 (stereo not given) [carbinoxamine maleate],-0.187
21,NC(=O)NC1NC(=O)NC1=O (stereo not given) [allantoin],-0.177
22,C[C@@H]1CC[C@@]23CCC4(C)[C@@](C=CC5[C@@]6(C)CCC(=O)C(C)(C)C6CC[C@]54C)(OC2=O)C3[C@H]1C (stereo not given in full) [3-oxoursan (28-13)olide],-0.0232
23,COc1c2ccoc2cc2oc(=O)ccc12 [bergapten],0.00202
24,O=C1C(O)=C([C@H]2CC[C@H](c3ccc(Cl)cc3)CC2)C(=O)c2ccccc21 [atovaquone],-0.153
25,Cc1ccccc1C(OCCN(C)C)c1ccccc1 (stereo not given) [orphenadrine citrate],-0.107

# Ordered by length of the SMILES (largest number first): some entries from above
row,SMILES,log
15,COC(=O)C1=C(C)NC(C)=C(C(=O)OCCN(C)Cc2ccccc2)C1c1cccc([N+](=O)[O-])c1 (stereo not given) [nicardipine hydrochloride],-0.0129
24,O=C1C(O)=C([C@H]2CC[C@H](c3ccc(Cl)cc3)CC2)C(=O)c2ccccc21 [atovaquone],-0.153
17,CN1CCN(c2c(F)cc3c(=O)c(C(=O)O)cn4c3c2SCC4)CC1 [rufloxacin hydrochloride],0.0757
12,O=S(=O)(O)c1cc(I)c(O)c2ncccc12 [chiniofon],-0.129
5,CCCCNc1ccc(C(=O)OCCN(C)C)cc1 [tetracaine hydrochloride],-0.00278
